{"source": "PubChem BioAssay AID1347423", "about": "(Functional Genomics Laboratory (NCATS/FGL), 2020)", "note": "In all, about 52,000 sequences went through this assay and about 210 (0.4%) were called active.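 How the source made its calls: active means gene whose silencing raises cell survival under the drug, median off-target-corrected z-score across its silencing RNAs 2 or more; inactive means the rest.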 The list shows a part of the results."}
{"test": "Resistance to Poly (ADP-Ribose) Polymerase inhibitor: Gene Identification via Genome-wide siRNA Screen", "conditions": "mouse BRCA2 R2336H ES cells, olaparib, CellTiter-Glo viability; active compounds read high", "summary_of_the_method": "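Mouse BRCA2 R2336H ES cells were reverse-transfected with siRNA (20 nM final), treated at 48 h with 500 nM olaparib, and read by CellTiter-Glo after 72 h. Scores: MAD-based z per siRNA, median per gene, seed off-target correction.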"}
{"sequence": "CCUACUCAAGAAGCUCAGUTT against Hpse", "z-score": "inactive: -0.357"}
{"sequence": "CCUGUACUCUACCUCACACTT against 8430427H17Rik", "z-score": "inactive: -1.24"}
{"sequence": "GGACAAGAAUUGGAACAAATT against Zfp84", "z-score": "inactive: 0.628"}
{"sequence": "GGCCAGAGGACUAUGUUAUTT against C1sb", "z-score": "inactive: -0.42"}
{"sequence": "CCUAAACAGCCUUAUCGAUTT against Clca1", "z-score": "inactive: 0.859"}
{"sequence": "GGAGGUUGAAGUGCAGGAATT against Mab21l1", "z-score": "inactive: -1.24"}
{"sequence": "CCCUUGUCUAAAAUAUACATT against BC066028", "z-score": "inactive: -0.51"}
{"sequence": "GGACGCACACGUACAUCGUTT against Rkhd1", "z-score": "inactive: 1.35"}
{"sequence": "GGGCAAGCCACUCAUGUUGTT against Me2", "z-score": "inactive: 0.642"}
{"sequence": "GGCCAAUAGGACAUAUCUATT against Qprt", "z-score": "inactive: 0.479"}
{"sequence": "GGAGACCACAGACCUCAAATT against Fcgrt", "z-score": "inactive: -0.767"}
{"sequence": "CCAUCCCGUUCACUAGAGATT against 1110056A04Rik", "z-score": "inactive: 0.0509"}
{"sequence": "GCUUUUGUGUCAUGUUGCATT against Ncdn", "z-score": "inactive: 0.0346"}
{"sequence": "CCAUUUUAACCAAUGGUGUTT against Olfr572", "z-score": "inactive: 0.23"}
{"sequence": "GGCAAGUCUCAAAUUAUUUTT against D930030D11Rik", "z-score": "inactive: 0.00409"}
{"sequence": "GGGUCCUAAACAGACCAGATT against 1600014E20Rik", "z-score": "inactive: 0.215"}
{"sequence": "GGAUAUUUCCAGACAAUAUTT against 5832418A03Rik", "z-score": "inactive: 0.257"}
{"sequence": "CGCCACUGCUUUGAUUACUTT against 6330578E17Rik", "z-score": "inactive: 0.781"}
{"sequence": "GGACAAGAAGAAGUCCAUUTT against Isl2", "z-score": "inactive: -0.147"}
{"sequence": "GGCUAACAACAUCUUCUCCTT against Tlr7", "z-score": "inactive: -2.4"}
{"sequence": "GGAUGGUUCUGAGGUGAAATT against Il17e", "z-score": "inactive: -2.45"}
{"sequence": "GCGCAUGGUGCAGAACCUATT against Krt1-12", "z-score": "inactive: -0.185"}
{"sequence": "GGUUUGGCAAACAUUUCAUTT against Akr1c20", "z-score": "inactive: 0.514"}
{"sequence": "GGCAUAGGUAUAUUUGAGUTT against Lep", "z-score": "inactive: 0.747"}
{"sequence": "CCUGAUUAAUGUGACUGGGTT against Dbr1", "z-score": "inactive: 0.803"}
{"sequence": "GGCGAUGGAAAGACUGCACTT against Hus1b", "z-score": "inactive: -0.485"}
{"sequence": "GGUCAAAGGGAAACAAGUUTT against Creb3l4", "z-score": "inactive: -2.55"}
{"sequence": "GGCUUGGAUUUUGAAAUACTT against P140", "z-score": "inactive: 0.368"}
{"sequence": "GGUGUUGAGACCAAUUAGCTT against Dqx1", "z-score": "inactive: 1.07"}
